Drawing on article PMC10185471, this text covers binding for 3 substances.

Protein sequences, listed by entry. Tags and fused reporters are not part of them. Lines headed by an entry give the natural chain unless they say otherwise; changes in a name come on top. Residues count along the entry.
UniProt Q9Z2G6, residues 22-790: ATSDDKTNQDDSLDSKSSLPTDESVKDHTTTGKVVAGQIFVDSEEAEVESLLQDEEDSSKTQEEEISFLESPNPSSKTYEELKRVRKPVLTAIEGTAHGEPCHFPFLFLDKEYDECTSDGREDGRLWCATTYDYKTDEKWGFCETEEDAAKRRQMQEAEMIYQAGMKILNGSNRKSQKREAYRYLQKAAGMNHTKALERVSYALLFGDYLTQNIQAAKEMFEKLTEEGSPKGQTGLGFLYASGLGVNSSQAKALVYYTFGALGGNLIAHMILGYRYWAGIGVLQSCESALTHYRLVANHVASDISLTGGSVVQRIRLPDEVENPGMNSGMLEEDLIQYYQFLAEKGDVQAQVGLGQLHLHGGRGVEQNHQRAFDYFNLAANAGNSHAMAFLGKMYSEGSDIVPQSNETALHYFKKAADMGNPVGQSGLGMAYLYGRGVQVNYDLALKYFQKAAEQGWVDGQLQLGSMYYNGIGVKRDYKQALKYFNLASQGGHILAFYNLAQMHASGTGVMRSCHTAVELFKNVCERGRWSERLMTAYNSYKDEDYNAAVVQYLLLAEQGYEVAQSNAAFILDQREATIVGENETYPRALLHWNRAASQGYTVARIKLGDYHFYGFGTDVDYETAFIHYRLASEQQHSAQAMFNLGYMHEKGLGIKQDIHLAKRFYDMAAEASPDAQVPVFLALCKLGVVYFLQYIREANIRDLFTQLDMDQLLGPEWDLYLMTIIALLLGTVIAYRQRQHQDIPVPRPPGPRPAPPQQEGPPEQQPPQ
UniProt Q9DBY1: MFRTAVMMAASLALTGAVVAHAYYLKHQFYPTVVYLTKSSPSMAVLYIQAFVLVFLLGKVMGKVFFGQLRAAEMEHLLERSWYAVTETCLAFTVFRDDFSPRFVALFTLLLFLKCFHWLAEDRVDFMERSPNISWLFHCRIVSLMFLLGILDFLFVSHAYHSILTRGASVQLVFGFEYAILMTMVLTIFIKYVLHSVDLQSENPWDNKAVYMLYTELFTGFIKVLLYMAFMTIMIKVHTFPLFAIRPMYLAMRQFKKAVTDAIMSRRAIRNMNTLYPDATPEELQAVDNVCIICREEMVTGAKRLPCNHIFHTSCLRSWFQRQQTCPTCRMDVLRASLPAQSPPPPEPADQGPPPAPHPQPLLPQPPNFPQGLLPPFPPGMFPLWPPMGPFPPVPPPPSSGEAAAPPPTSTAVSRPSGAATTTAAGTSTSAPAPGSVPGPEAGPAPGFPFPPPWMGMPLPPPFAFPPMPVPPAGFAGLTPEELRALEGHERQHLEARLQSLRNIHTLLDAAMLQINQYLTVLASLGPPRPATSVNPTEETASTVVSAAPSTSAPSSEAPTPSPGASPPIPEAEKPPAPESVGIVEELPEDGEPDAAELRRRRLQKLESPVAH
UniProt P70302, residues 23-685: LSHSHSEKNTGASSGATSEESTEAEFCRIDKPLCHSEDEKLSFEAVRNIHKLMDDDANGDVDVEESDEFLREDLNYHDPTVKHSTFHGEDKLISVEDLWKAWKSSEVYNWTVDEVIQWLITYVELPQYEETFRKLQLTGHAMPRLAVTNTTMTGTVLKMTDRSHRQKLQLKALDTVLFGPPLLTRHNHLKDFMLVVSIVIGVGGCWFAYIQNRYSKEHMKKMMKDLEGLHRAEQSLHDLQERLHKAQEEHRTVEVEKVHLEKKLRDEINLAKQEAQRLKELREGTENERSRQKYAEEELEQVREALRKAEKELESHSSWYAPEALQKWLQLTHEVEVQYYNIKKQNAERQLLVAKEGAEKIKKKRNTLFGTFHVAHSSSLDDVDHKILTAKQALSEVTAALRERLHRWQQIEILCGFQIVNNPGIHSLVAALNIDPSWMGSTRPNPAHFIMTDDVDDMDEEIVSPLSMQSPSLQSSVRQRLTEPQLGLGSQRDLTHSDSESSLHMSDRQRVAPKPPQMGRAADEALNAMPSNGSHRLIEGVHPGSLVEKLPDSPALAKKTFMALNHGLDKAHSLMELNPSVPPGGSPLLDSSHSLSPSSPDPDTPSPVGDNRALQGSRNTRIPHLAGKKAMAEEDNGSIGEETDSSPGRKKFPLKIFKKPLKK

These are yes or no findings as the source states them, for the method shown. Binding seen in cells or lysates may run through a third protein. Some binding calls cover weakened binding; strength is not graded here.

For assay [1], the target named is T1, STING (stimulator of interferon genes), endogenous, mouse (mouse (endogenous in primary macrophages and MEF)) (UniProt Q3TBT3).
T1 sequence: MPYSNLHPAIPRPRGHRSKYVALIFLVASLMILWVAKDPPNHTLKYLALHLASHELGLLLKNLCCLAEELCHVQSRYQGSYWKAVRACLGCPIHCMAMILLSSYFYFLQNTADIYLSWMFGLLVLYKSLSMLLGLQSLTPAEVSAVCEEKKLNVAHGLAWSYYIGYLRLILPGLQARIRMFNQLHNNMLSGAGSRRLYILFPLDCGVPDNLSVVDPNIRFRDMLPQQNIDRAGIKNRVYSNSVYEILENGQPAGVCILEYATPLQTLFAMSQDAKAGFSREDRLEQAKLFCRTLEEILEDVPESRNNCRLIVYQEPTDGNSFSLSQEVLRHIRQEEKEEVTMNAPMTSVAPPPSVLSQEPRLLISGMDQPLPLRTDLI
Description: co-IP; immunoprecipitation of endogenous STING (antibody and Protein A agarose) from lysates of mouse primary macrophages treated with or without DMXAA for 3 h; immunoblot. (In general: Immunoblotting shows a protein as a band on a membrane.)

The target of assay [2] is SEL1L (suppressor of lin-12-like), endogenous, mouse (mouse (endogenous in primary macrophages and RAW 264.7)) (UniProt Q9Z2G6). Description: co-IP; immunoprecipitation of endogenous SEL1L (antibody and Protein A agarose) from lysates of mouse primary macrophages in the basal state; lysis buffer 150 mM NaCl, 1 mM EDTA, 50 mM Tris-HCl pH 7.5, 1% Triton X-100 or NP-40; 16 h at 4 °C; immunoblot; IgG control.

For the substance “HRD1 (HMG-CoA reductase degradation 1), endogenous, mouse (from UniProt Q9DBY1 1-612)”, the binding result in assay [1] and in assay [2] was “binds” in each case. “SEL1L (suppressor of lin-12-like), endogenous, mouse (from UniProt Q9Z2G6 22-790)”: in assay [1], the binding entry was “binds”. “STIM1 (stromal interaction molecule 1), endogenous, mouse (from UniProt P70302 23-685)”: in assay [2], the binding entry is on record as “no binding”.
